Assay results reported in PMC6562811.
No constants are given. Whether binding was seen depends on the method and setting. Binding seen in cells or lysates may run through a third protein. These calls come from enrichment with a bait or labelling near it, and not all partners need be listed. No binding means not detected with the bait.

Target: Twin-StrepII-HA-Beclin 1-WT, Q14457
Test: affinity purification with mass spectrometry; Twin-StrepII-HA-tagged Beclin 1 baits purified on Strep-Tactin beads from extracts of stable HEK293 lines induced with 2 ug/mL tetracycline for 24 h; cells in full medium or amino-acid starved for 2 h; three biological replicates; SAINTexpress, Bayesian FDR < 0.05, eGFP runs as control
Conditions: remark: other sources report otherwise

binding: no binding
B1: Ambra 1, Q9C0C7 1-1298 (protein)
chain: MKVVPEKNAVRILWGRERGARAMGAQRLLQELVEDKTRWMKWEGKRVELPDSPRSTFLLAFSPDRTLLASTHVNHNIYITEVKTGKCVHSLIGHRRTPWCVTFHPTISGLIASGCLDGEVRIWDLHGGSESWFTDSNNAIASLAFHPTAQLLLIATANEIHFWDWSRREPFAVVKTASEMERVRLVRFDPLGHYLLTAIVNPSNQQGDDEPEIPIDGTELSHYRQRALLQSQPVRRTPLLHNFLHMLSSRSSGIQVGEQSTVQDSATPSPPPPPPQPSTERPRTSAYIRLRQRVSYPTAECCQHLGILCLCSRCSGTRVPSLLPHQDSVPPASARATTPSFSFVQTEPFHPPEQASSTQQDQGLLNRPSAFSTVQSSTAGNTLRNLSLGPTRRSLGGPLSSHPSRYHREIAPGLTGSEWTRTVLSLNSRSEAESMPPPRTSASSVSLLSVLRQQEGGSQASVYTSATEGRGFPASGLATESDGGNGSSQNNSGSIRHELQCDLRRFFLEYDRLQELDQSLSGEAPQTQQAQEMLNNNIESERPGPSHQPTPHSSENNSNLSRGHLNRCRACHNLLTFNNDTLRWERTTPNYSSGEASSSWQVPSSFESVPSSGSQLPPLERTEGQTPSSSRLELSSSASPQEERTVGVAFNQETGHWERIYTQSSRSGTVSQEALHQDMPEESSEEDSLRRRLLESSLISLSRYDGAGSREHPIYPDPARLSPAAYYAQRMIQYLSRRDSIRQRSMRYQQNRLRSSTSSSSSDNQGPSVEGTDLEFEDFEDNGDRSRHRAPRNARMSAPSLGRFVPRRFLLPEYLPYAGIFHERGQPGLATHSSVNRVLAGAVIGDGQSAVASNIANTTYRLQWWDFTKFDLPEISNASVNVLVQNCKIYNDASCDISADGQLLAAFIPSSQRGFPDEGILAVYSLAPHNLGEMLYTKRFGPNAISVSLSPMGRYVMVGLASRRILLHPSTEHMVAQVFRLQQAHGGETSMRRVFNVLYPMPADQRRHVSINSARWLPEPGLGLAYGTNKGDLVICRPEALNSGVEYYWDQLNETVFTVHSNSRSSERPGTSRATWRTDRDMGLMNAIGLQPRNPATSVTSQGTQTLALQLQNAETQTEREVPEPGTAASGPGEGEGSEYGASGEDALSRIQRLMAEGGMTAVVQREQSTTMASMGGFGNNIIVSHRIHRSSQTGTEPGAAHTSSPQPSTSRGLLPEAGQLAERGLSPRTASWDQPGTPGREPTQPTLPSSSPVPIPVSLPSAEGPTLHCELTNNNHLLDGGSSRGDAAGPRGEPRNR
